This is one part of the list. Further columns of the screen follow, without active or inactive calls. The list favours compounds with an active or inconclusive main result. Potencies come from curve fits of mixed quality, noted in brackets.
Assay: IkB Signaling
Settings: ABC-DLBCL IkBa-CBG/CBR dual luciferase ratio (green luciferase fused to IkBa over red control in OCI-Ly3 lymphoma cells), 4 h
How it was run: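 In this assay, an IκBα–CBG68 fusion accumulates when IKK-driven degradation is blocked; native CBR normalizes for cell number. OCI-Ly3 cells were treated 4 h with compound and doxycycline, then green and red light read after Chroma-Glo addition.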

[1] = measured here: control luc red channel unless noted

## C[C@]12C[C@H](O)[C@H]3[C@@H](CCC4=CC(=O)CC[C@@]43C)[C@@H]1CC[C@@H]2C(=O)CO
Measured here: IkB-luc green channel
  AC50: 0.0158 µM [rising, full curve]
Measured here: control luc red channel
  AC50: 0.0158 µM [rising, full curve, poor fit]

## Oc1ccc(COCc2ccccc2)c2cccnc12
[1]
  AC50: 6.31 µM [rising, partial curve, poor fit] [measured here: IkB-luc green channel]

## Cc1ccc2nc(-c3ccsc3)c(Nc3ccccc3C)n2c1
[1]
  AC50: 0.0501 µM [falling, full curve, poor fit]

## COc1ccccc1/C=C/c1nc(C#N)c(N2CCCCC2)o1
[1]
  AC50: 39.8 µM [falling, single point]

## Cc1nc2nncn2c(N2CCN(c3ccccc3)CC2)c1C
[1]
  AC50: 6.31 µM [falling, single point]

## C/C(=C\C(=O)Nc1nccs1)c1ccccc1
[1]
  AC50: 20 µM [falling, single point]

## COC(=O)c1scc(-c2ccccc2)c1S(=O)(=O)Nc1ccccc1
[1]
  AC50: 39.8 µM [falling, single point]

## O=C1c2ccccc2C(=O)C1(c1ccccc1)N1CCN(c2cccc(Cl)c2)CC1
[1]
  AC50: 6.31 µM [falling, full curve, poor fit]

## CC(C)c1ccc(S(=O)(=O)c2nnn3c2nc(NCCc2ccccc2)c2sccc23)cc1
[1]
  AC50: 6.31 µM [falling, full curve]

## N#CC1=C(N)Oc2c(ccc3cccnc23)C1c1cccnc1 (stereo unspecified)
[1]
  AC50: 31.6 µM [falling, partial curve]

## O=C(O)c1c(-c2ccccc2)c2oc3ccccc3c2[nH]c1=O
[1]
  AC50: 3.98 µM [rising, full curve]

## CC(=O)Nc1ccc(S(=O)(=O)NCC2CCC(C(=O)NCCc3ccccc3)CC2)cc1 (stereo unspecified)
[1]
  AC50: 5.01 µM [falling, full curve, poor fit]

## O=C(CSc1nnnn1-c1ccccc1)Nc1nsc(-c2ccc(Cl)cc2)n1
[1]
  AC50: 1 µM [falling, full curve]

## COc1cc(-c2ccno2)ccc1S(=O)(=O)N1CCN(c2cc(C)ccc2C)CC1
[1]
  AC50: 10 µM [falling, partial curve]

## COCC(=O)Oc1c(Sc2ccc(C)cc2)c(C)nn1C(C)(C)C
[1]
  AC50: 10 µM [falling, partial curve]

## COc1cccc(N2CC(NC(=O)C(c3ccccc3)c3ccccc3)CC2=O)c1 (stereo unspecified)
[1]
  AC50: 12.6 µM [falling, partial curve, poor fit]

## Cc1cc(C(=O)CN2C(=O)NC(C)(c3cccc(Br)c3)C2=O)c(C)n1Cc1ccco1 (stereo unspecified)
[1]
  AC50: 15.8 µM [falling, partial curve]

## O=C(Nc1ccc(Br)c2cccnc12)c1cccc2ccccc12
[1]
  AC50: 12.6 µM [rising, partial curve]

## Cc1cc(C)cc(NC(=O)CCC(=O)N2Cc3ccccc3Oc3ncccc32)c1
[1]
  AC50: 20 µM [falling, single point]

## Cc1ccc(CCNC(=O)c2cc3sccc3n2Cc2ccc(C)cc2)cc1
[1]
  AC50: 12.6 µM [falling, partial curve]

## c1ccc2nc(-c3nc4ccccc4[nH]3)ccc2c1
[1]
  AC50: 2.51 µM [falling, full curve]

## Cc1c(Cl)ccc2sc(NC(=O)c3ccc(S(=O)(=O)N4CCCc5ccccc54)cc3)nc12
[1]
  AC50: 1 µM [falling, partial curve]

## CCc1ccccc1NC(=O)c1nnn(-c2ccc(F)cc2)c1C
[1]
  AC50: 0.398 µM [falling, partial curve]

## CC1CCN(S(=O)(=O)c2ccc3c(c2)oc(=O)n3CC(=O)NCc2ccc(F)cc2)CC1
[1]
  AC50: 31.6 µM [falling, single point]

## Cc1cc(C)cc(-n2c(SCC(=O)N3CCCCC3)nc3c([nH]c4ccccc43)c2=O)c1
[1]
  AC50: 15.8 µM [rising, partial curve, poor fit]

## COc1ccc(C(=O)c2cn[nH]c2-c2cc(Cl)ccc2O)cc1
[1]
  AC50: 10 µM [falling, partial curve]

## Cc1cc(C)nc(NS(=O)(=O)c2ccc(NC(=O)COc3ccc(Cl)cc3C)cc2)n1
[1]
  AC50: 25.1 µM [falling, single point]

## Cc1nc(SCc2cccc(F)c2)[nH]c(=O)c1C#N
[1]
  AC50: 7.94 µM [falling, partial curve]

## CCn1c(SCc2ccccc2)nnc1-c1ccc(S(=O)(=O)N2CCCCC2)cc1
[1]
  AC50: 31.6 µM [falling, partial curve]

## Clc1cccc(N2CCN(c3nc4ccccc4n4cnnc34)CC2)c1
[1]
  AC50: 3.98 µM [rising, single point]
